# In the supplement of paper PMC10849652:
# The chains behind the UniProt entries cited, without tags or fusion partners. Where a name states a change or a piece, a line headed by the entry shows the natural chain unless it says otherwise.
# UniProt Q9BXJ9: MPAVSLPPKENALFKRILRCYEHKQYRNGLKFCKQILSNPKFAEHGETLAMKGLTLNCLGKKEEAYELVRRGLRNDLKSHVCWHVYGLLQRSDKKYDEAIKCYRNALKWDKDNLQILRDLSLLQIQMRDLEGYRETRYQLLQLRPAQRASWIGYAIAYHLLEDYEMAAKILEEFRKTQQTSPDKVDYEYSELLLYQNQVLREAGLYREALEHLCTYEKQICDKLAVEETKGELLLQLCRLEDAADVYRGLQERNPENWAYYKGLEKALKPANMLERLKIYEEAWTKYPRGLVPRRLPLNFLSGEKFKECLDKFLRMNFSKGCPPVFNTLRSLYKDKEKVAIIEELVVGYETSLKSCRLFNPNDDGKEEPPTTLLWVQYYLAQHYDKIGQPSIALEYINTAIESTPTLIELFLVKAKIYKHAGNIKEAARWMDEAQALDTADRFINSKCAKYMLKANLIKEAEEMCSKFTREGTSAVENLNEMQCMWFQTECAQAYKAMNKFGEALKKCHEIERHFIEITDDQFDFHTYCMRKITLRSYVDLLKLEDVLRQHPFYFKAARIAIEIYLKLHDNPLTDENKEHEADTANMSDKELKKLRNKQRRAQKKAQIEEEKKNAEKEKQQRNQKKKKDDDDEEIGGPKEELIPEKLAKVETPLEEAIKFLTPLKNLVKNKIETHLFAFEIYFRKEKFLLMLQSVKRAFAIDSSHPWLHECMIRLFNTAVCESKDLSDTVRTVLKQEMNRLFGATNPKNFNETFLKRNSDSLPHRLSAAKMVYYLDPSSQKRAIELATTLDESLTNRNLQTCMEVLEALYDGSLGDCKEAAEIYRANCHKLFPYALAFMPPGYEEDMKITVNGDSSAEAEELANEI
# UniProt Q96NT1: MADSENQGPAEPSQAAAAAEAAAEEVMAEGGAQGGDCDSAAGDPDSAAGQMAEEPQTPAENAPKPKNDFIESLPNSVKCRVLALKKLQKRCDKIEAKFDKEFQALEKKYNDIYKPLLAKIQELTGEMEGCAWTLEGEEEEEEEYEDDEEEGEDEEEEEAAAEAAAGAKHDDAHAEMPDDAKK
# UniProt O43674, whole entry, looked up: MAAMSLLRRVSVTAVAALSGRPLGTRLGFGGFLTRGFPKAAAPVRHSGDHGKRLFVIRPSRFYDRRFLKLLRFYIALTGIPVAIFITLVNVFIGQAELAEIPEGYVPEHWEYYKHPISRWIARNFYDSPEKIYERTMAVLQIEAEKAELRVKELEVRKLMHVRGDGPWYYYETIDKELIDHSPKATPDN
# UniProt O75306, whole entry, looked up: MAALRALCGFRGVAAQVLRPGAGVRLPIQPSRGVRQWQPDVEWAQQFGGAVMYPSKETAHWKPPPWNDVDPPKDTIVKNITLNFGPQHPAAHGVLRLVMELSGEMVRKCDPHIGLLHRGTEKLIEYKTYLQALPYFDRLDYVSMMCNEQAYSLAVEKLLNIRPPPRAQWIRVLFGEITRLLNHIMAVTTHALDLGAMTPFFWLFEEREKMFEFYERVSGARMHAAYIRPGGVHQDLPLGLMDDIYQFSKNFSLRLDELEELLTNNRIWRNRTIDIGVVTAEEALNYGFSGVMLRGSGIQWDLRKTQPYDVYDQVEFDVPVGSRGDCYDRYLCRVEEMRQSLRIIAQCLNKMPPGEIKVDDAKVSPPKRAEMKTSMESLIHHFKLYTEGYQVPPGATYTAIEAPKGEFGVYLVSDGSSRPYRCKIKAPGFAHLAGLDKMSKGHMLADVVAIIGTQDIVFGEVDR
# UniProt P12036: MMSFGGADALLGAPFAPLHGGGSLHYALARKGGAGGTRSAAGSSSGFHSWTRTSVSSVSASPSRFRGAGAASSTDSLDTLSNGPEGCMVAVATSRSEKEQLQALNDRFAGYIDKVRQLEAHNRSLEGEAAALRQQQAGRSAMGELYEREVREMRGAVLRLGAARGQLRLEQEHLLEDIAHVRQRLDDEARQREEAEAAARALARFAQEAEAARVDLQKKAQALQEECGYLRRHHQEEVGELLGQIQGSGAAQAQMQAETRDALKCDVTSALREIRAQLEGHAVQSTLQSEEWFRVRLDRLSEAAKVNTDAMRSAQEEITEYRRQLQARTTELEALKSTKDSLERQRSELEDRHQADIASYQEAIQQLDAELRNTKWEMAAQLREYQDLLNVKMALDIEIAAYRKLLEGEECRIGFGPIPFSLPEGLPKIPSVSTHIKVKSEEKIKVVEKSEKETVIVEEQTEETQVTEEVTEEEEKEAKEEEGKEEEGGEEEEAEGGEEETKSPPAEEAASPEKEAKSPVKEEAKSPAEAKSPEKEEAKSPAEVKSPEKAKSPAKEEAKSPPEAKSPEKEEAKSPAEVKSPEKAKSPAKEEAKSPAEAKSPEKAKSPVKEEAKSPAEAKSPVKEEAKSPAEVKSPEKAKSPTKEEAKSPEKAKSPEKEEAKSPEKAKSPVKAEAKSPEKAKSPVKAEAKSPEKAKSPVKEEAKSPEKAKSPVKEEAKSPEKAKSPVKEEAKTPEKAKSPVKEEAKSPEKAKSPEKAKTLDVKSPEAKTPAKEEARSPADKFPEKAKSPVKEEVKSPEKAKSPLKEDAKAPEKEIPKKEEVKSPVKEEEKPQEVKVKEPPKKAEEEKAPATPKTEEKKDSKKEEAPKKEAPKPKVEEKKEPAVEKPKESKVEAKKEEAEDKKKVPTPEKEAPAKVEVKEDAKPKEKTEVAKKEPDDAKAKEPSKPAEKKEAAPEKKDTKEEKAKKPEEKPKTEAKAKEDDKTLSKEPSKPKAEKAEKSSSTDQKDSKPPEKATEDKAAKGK
# UniProt Q9Y6M9, whole entry, looked up: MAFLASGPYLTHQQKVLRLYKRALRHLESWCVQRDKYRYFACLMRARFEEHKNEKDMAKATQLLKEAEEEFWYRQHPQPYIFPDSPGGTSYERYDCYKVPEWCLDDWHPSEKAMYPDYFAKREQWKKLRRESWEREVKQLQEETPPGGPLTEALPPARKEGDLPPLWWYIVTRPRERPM
# UniProt O75489, whole entry, looked up: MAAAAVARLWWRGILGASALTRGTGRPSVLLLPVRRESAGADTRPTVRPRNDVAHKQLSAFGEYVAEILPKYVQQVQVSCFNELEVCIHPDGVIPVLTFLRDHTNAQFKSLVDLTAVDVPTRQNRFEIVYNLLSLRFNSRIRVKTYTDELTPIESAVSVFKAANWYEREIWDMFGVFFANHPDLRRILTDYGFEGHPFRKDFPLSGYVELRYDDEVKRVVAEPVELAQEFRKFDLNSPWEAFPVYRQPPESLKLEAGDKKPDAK
# UniProt Q92542, whole entry, looked up: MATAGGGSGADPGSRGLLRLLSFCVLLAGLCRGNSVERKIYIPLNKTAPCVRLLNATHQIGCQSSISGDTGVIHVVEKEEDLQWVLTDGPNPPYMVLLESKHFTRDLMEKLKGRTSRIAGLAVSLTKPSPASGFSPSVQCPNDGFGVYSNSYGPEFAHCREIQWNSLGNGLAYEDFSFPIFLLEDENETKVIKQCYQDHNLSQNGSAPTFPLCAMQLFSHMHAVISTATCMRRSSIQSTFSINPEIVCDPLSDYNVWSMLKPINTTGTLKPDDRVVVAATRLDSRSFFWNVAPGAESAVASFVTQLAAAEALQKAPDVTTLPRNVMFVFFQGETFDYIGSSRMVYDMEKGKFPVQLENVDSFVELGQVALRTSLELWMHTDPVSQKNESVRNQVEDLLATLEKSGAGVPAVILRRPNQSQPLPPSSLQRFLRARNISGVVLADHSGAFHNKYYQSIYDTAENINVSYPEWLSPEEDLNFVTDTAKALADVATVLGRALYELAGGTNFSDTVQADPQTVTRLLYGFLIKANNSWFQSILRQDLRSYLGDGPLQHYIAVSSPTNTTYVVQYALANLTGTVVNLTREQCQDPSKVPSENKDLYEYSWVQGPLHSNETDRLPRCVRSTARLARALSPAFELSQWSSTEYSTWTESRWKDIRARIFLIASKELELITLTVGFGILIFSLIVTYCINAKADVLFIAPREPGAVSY
# UniProt Q9UHB4: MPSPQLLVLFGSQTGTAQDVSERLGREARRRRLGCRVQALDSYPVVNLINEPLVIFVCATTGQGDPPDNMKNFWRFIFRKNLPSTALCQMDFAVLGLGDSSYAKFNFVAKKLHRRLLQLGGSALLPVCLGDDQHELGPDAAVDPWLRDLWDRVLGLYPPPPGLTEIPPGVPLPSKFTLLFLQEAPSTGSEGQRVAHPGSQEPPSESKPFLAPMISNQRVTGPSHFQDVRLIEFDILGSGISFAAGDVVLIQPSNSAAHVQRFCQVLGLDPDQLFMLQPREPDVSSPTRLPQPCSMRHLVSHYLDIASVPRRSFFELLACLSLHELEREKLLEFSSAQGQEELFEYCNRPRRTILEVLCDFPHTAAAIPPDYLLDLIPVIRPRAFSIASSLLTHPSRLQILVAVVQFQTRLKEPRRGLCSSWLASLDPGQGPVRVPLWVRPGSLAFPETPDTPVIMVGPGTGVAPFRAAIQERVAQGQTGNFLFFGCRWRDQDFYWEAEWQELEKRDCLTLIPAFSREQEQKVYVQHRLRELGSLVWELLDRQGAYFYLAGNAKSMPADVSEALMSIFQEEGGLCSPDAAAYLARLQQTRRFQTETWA
# UniProt P61599, whole entry, looked up: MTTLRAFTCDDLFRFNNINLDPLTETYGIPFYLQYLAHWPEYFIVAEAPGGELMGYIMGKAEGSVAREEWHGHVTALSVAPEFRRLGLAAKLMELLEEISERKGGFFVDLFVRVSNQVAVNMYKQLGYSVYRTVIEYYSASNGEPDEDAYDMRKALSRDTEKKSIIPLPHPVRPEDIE
# UniProt Q9P032: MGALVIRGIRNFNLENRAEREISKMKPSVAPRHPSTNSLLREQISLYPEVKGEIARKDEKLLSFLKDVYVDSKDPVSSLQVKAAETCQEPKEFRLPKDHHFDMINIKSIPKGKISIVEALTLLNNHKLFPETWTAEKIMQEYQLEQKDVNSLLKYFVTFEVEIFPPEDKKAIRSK
# UniProt Q9UI09, whole entry, looked up: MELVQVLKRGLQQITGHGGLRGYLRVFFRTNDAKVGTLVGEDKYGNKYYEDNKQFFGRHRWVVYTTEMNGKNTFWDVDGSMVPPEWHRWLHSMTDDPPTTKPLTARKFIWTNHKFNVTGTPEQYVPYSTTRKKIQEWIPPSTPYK
# UniProt Q4G0N4: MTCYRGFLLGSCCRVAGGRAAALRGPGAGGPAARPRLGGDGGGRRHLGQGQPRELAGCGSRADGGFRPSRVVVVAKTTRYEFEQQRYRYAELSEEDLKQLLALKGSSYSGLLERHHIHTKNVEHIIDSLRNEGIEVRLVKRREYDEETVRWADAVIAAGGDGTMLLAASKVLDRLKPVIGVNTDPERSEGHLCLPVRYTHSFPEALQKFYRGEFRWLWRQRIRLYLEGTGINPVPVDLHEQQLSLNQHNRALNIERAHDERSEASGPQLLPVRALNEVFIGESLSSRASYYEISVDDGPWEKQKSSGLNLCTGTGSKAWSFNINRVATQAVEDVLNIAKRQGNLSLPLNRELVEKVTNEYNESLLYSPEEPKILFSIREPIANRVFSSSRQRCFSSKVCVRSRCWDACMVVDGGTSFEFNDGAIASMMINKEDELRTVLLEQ
# UniProt P56181: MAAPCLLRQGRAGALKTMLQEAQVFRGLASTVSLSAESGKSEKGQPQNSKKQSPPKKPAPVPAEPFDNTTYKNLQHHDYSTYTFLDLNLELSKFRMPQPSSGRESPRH
# UniProt Q330K2: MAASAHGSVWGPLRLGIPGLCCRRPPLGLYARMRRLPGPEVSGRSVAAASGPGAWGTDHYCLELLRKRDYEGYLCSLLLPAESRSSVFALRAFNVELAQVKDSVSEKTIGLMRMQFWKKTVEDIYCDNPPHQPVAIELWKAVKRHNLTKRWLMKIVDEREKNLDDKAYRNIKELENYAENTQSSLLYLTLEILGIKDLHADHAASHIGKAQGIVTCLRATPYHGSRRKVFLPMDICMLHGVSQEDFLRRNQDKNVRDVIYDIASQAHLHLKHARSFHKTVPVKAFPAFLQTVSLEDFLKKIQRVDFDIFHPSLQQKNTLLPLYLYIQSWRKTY
# UniProt Q68D85: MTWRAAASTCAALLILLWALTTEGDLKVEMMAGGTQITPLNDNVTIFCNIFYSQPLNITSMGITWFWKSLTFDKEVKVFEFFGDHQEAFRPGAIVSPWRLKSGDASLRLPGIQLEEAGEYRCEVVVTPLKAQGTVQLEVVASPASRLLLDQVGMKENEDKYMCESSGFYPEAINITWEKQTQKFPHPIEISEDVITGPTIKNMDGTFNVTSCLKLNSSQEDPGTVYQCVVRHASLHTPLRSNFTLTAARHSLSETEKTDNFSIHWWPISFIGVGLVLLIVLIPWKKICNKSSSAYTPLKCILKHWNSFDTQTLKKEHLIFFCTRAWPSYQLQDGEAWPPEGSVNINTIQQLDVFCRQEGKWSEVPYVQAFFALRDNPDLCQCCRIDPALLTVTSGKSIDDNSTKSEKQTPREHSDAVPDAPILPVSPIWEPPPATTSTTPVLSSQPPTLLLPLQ
# The other results are listed elsewhere or left out.
# What was measured:
# Assay in all cases: log2 fold change, soluble protein after heating vs DMSO (PISA); higher = thermal stabilisation; K562 cells, 10 uM, 30 min; active = over 0.2 and 3.5 SD of the protein, either way, in both replicates (recomputed)
# bafetinib = compound: Cc1ccc(NC(=O)c2ccc(CN3CC[C@H](N(C)C)C3)c(C(F)(F)F)c2)cc1Nc1nccc(-c2cncnc2)n1 [bafetinib]
# Summary of the method: (§1)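 Soluble protein was quantified by TMTpro 16plex LC-MS/MS after channel sums were equalised. It was obtained as the supernatant after 21,000xg for 90 min from pooled aliquots of K562 cells (2×10^6 cells/mL, 10 μM compound, 30 min) heated for 3 min across 48°C-58°C and extracted in PBS with 0.5% NP-40 at 4°C. Thermal stability values are relative to control samples and come from duplicates. They are given as log2 fold changes.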
# [1] = compound: Cc1cccc(CC(=O)N2CCc3c2ccc(-c2cn(C)c4ncnc(N)c24)c3F)n1
# Summary of the method: as §1
# nilotinib = compound: Cc1cn(-c2cc(NC(=O)c3ccc(C)c(Nc4nccc(-c5cccnc5)n4)c3)cc(C(F)(F)F)c2)cn1 [nilotinib]
# Summary of the method: as §1
# [2] = compound: Cc1nc(Nc2n[nH]c3c2CN(C(=O)N[C@H](CN(C)C)c2ccccc2)C3(C)C)c2sccc2n1
# Summary of the method: as §1
# dasatinib = compound: Cc1nc(Nc2ncc(C(=O)Nc3c(C)cccc3Cl)s2)cc(N2CCN(CCO)CC2)n1 [dasatinib]
# Summary of the method: as §1
# [3] = compound: Cc1ncc(-c2ccnc(Nc3ccc(S(C)(=O)=O)cc3)n2)n1C(C)C
# Summary of the method: as §1
# [4] = compound: Cn1cc(-c2ccc3c(c2)CCN3C(=O)Cc2cccc(C(F)(F)F)c2)c2c(N)ncnc21
# Summary of the method: as §1
# [5] = compound: Cn1cc(-c2ccc3nnc(C(F)(F)c4ccc5ncccc5c4)n3n2)cn1
# Summary of the method: as §1
# tipifarnib = compound: Cn1cncc1[C@@](N)(c1ccc(Cl)cc1)c1ccc2c(c1)c(-c1cccc(Cl)c1)cc(=O)n2C [tipifarnib]
# Summary of the method: as §1
# mubritinib = compound: FC(F)(F)c1ccc(/C=C/c2nc(COc3ccc(CCCCn4ccnn4)cc3)co2)cc1 [mubritinib]
# Summary of the method: as §1
# [6] = compound: NC(=O)Nc1cc(-c2cccc(F)c2)sc1C(=O)N[C@H]1CCCNC1
# Summary of the method: as §1
# [7] = compound: NC(=O)c1cnc(N[C@@H]2CCCC[C@@H]2N)nc1Nc1cccc(-n2nccn2)c1
# Summary of the method: as §1
# [8] = compound: NC1(c2ccc(-c3nc4ccn5c(=O)[nH]nc5c4cc3-c3ccccc3)cc2)CCC1
# Summary of the method: as §1
# [9] = compound: NCC(=O)Nc1ccc(-n2nc(C(F)(F)F)cc2-c2ccc3c(ccc4ccccc43)c2)cc1
# Summary of the method: as §1
# entinostat = compound: Nc1ccccc1NC(=O)c1ccc(CNC(=O)OCc2cccnc2)cc1 [entinostat]
# Summary of the method: as §1
# vorinostat = compound: O=C(CCCCCCC(=O)Nc1ccccc1)NO [vorinostat]
# Summary of the method: as §1
# citarinostat = compound: O=C(CCCCCCNC(=O)c1cnc(N(c2ccccc2)c2ccccc2Cl)nc1)NO [citarinostat]
# Summary of the method: as §1
# silmitasertib = compound: O=C(O)c1ccc2c(c1)nc(Nc1cccc(Cl)c1)c1ccncc12 [silmitasertib]
# Summary of the method: as §1
# [10] = compound: O=C1NC(=O)C(c2cnc3ccccn23)=C1c1cn2c3c(cc(F)cc13)CN(C(=O)N1CCCCC1)CC2
# Summary of the method: as §1
# [11] = compound: c1cc(OCCN2CCCCC2)cc(-c2n[nH]c3ccc(-c4nnc[nH]4)cc23)c1
# Summary of the method: as §1
Target,log2 fold change (bafetinib),log2 fold change [1],log2 fold change (nilotinib),log2 fold change [2],log2 fold change (dasatinib),log2 fold change [3],log2 fold change [4],log2 fold change [5],log2 fold change (tipifarnib),log2 fold change (mubritinib),log2 fold change [6],log2 fold change [7],log2 fold change [8],log2 fold change [9],log2 fold change (entinostat),log2 fold change (vorinostat),log2 fold change (citarinostat),log2 fold change (silmitasertib),log2 fold change [10],log2 fold change [11]
NAA15 (UniProt Q9BXJ9),inactive: -0.024,inactive: 0.016,inactive: -0.029,inactive: -0.024,inactive: -0.052,inactive: -0.02,inactive: 0.051,inactive: 0.01,inactive: -0.022,inactive: -0.008,inactive: -0.035,inactive: -0.03,inactive: -0.046,inactive: 0,inactive: 0.001,inactive: 0.055,inactive: 0.022,inactive: -0.011,inactive: -0.059,inactive: -0.024
NAP1L5 (UniProt Q96NT1),inactive: 0.019,inactive: -0.048,inactive: 0.066,inactive: 0.02,inactive: 0.069,inactive: -0.023,inactive: -0.097,inactive: 0.094,inactive: -0.021,inactive: 0.069,inactive: 0.117,inactive: 0.056,inactive: -0.058,inactive: -0.011,inactive: 0.038,inactive: 0.026,inactive: 0.053,inactive: 0.055,inactive: -0.013,inactive: 0.069
NDUFB5 (UniProt O43674),inactive: -0.141,inactive: 0.013,inactive: -0.008,inactive: 0.003,inactive: 0.044,inactive: -0.017,inactive: -0.009,inactive: 0.002,inactive: -0.001,inactive: 0.038,inactive: 0.007,inactive: 0.005,inactive: -0.05,inactive: 0.052,inactive: 0.024,inactive: -0.035,inactive: 0.011,inactive: 0.007,inactive: 0.018,inactive: -0.024
NDUFS2 (UniProt O75306),inactive: -0.019,inactive: 0.018,inactive: 0.011,inactive: 0.002,inactive: -0.081,inactive: -0.028,inactive: 0.04,inactive: 0.026,inactive: -0.018,inactive: 0.068,inactive: 0.039,inactive: 0.009,inactive: -0.044,inactive: 0.037,inactive: 0.043,inactive: 0.001,inactive: 0.04,inactive: -0.012,inactive: -0.055,inactive: 0.007
NEFH (UniProt P12036),inactive: -0.117,inactive: -0.007,inactive: 0.1,inactive: -0.076,inactive: 0.302,inactive: -0.023,inactive: -0.417,inactive: -0.084,inactive: 0.185,inactive: -0.417,inactive: -0.084,inactive: -0.105,inactive: -0.216,inactive: 0.108,inactive: -0.013,inactive: -0.069,inactive: -0.044,inactive: 0.119,inactive: 0.202,inactive: -0.314
NDUFB9 (UniProt Q9Y6M9),inactive: -0.109,inactive: -0.035,inactive: 0.01,inactive: 0.007,inactive: -0.071,inactive: -0.023,inactive: 0.052,inactive: 0.051,inactive: -0.035,inactive: 0.019,inactive: -0.005,inactive: -0.02,inactive: -0.005,inactive: 0.001,inactive: -0.011,inactive: 0.007,inactive: 0.011,inactive: 0.005,inactive: -0.057,inactive: -0.056
NDUFS3 (UniProt O75489),inactive: -0.033,inactive: 0.084,inactive: -0.031,inactive: 0.003,inactive: -0.047,inactive: 0.008,inactive: 0.052,inactive: -0.038,inactive: -0.032,inactive: 0.055,inactive: 0.019,inactive: 0,inactive: -0.032,inactive: 0.039,inactive: -0.02,inactive: 0.012,inactive: 0.019,inactive: -0.039,inactive: 0.029,inactive: -0.015
NCSTN (UniProt Q92542),inactive: -0.041,inactive: 0.014,inactive: -0.007,inactive: 0.03,inactive: 0.006,inactive: -0.044,inactive: 0.041,inactive: -0.032,inactive: 0.085,inactive: -0.002,inactive: -0.076,inactive: -0.051,inactive: -0.001,inactive: -0.004,inactive: 0.004,inactive: -0.034,inactive: 0.037,inactive: 0.041,inactive: 0.054,inactive: -0.146
NDOR1 isoform 2 (UniProt Q9UHB4),inactive: -0.08,inactive: 0.055,inactive: 0.035,inactive: -0.07,inactive: -0.087,inactive: 0.041,inactive: 0.085,inactive: 0,inactive: 0.032,inactive: -0.084,inactive: -0.037,inactive: 0.003,inactive: -0.05,inactive: 0.017,inactive: -0.042,inactive: -0.016,inactive: -0.003,inactive: 0.102,inactive: -0.05,inactive: -0.036
NAA20 (UniProt P61599),inactive: -0.012,inactive: -0.006,inactive: 0.022,inactive: 0.009,inactive: -0.002,inactive: -0.015,inactive: 0.182,inactive: 0.046,inactive: 0.016,inactive: -0.056,inactive: -0.036,inactive: -0.019,inactive: -0.112,inactive: -0.01,inactive: 0.022,inactive: 0.006,inactive: -0.025,inactive: 0,inactive: -0.004,inactive: -0.056
NDUFAF4 (UniProt Q9P032),inactive: -0.128,inactive: -0.01,inactive: 0.012,inactive: -0.009,inactive: -0.084,inactive: -0.012,inactive: 0.064,inactive: 0.023,inactive: 0.028,inactive: 0.035,inactive: -0.008,inactive: -0.055,inactive: -0.088,inactive: -0.022,inactive: 0.018,inactive: -0.01,inactive: 0.076,inactive: -0.015,inactive: -0.042,inactive: -0.007
NDUFA12 (UniProt Q9UI09),inactive: 0,inactive: 0.089,inactive: -0.158,inactive: -0.031,inactive: -0.107,inactive: 0.029,inactive: 0.109,inactive: 0.062,inactive: -0.007,active: 0.326,inactive: -0.018,inactive: -0.038,inactive: -0.227,inactive: -0.061,inactive: 0.04,inactive: 0.077,inactive: 0.07,inactive: -0.052,inactive: 0.004,inactive: -0.033
NADK2 (UniProt Q4G0N4),inactive: -0.107,inactive: -0.012,inactive: 0.011,inactive: 0.003,inactive: 0.028,inactive: -0.01,inactive: 0.006,inactive: 0.011,inactive: 0.018,inactive: 0.007,inactive: 0.015,inactive: -0.024,inactive: -0.022,inactive: -0.028,inactive: -0.017,inactive: -0.035,inactive: 0.007,inactive: -0.029,inactive: -0.002,inactive: -0.025
NDUFV3 isoform 2 (UniProt P56181),inactive: -0.058,inactive: -0.104,inactive: 0.038,inactive: 0.054,inactive: 0.041,inactive: -0.092,inactive: -0.016,inactive: -0.025,inactive: 0.109,inactive: -0.036,inactive: 0.01,inactive: 0.066,inactive: 0.007,inactive: 0.003,inactive: -0.053,inactive: -0.015,inactive: -0.044,inactive: 0.004,inactive: -0.002,inactive: -0.067
NDUFAF6 (UniProt Q330K2),inactive: -0.178,inactive: 0.014,inactive: 0.01,inactive: -0.096,inactive: -0.064,inactive: 0.017,inactive: 0.01,inactive: 0,inactive: -0.11,inactive: 0.028,inactive: 0,inactive: -0.152,inactive: -0.291,inactive: 0,inactive: 0.026,inactive: 0.122,inactive: 0.086,inactive: -0.02,inactive: -0.065,inactive: -0.031
NCR3LG1 (UniProt Q68D85),inactive: -0.009,inactive: -0.09,inactive: -0.002,inactive: -0.078,inactive: -0.09,inactive: -0.055,inactive: -0.038,inactive: -0.024,inactive: 0.019,inactive: -0.007,inactive: -0.183,inactive: -0.062,inactive: -0.126,inactive: -0.036,inactive: -0.043,inactive: 0.09,inactive: 0.045,inactive: -0.003,inactive: 0.051,inactive: -0.171

# Single records, as listed above. Values in the order: log2 fold change (bafetinib) | log2 fold change [1] | log2 fold change (nilotinib) | log2 fold change [2] | log2 fold change (dasatinib) | log2 fold change [3] | log2 fold change [4] | log2 fold change [5] | log2 fold change (tipifarnib) | log2 fold change (mubritinib) | log2 fold change [6] | log2 fold change [7] | log2 fold change [8] | log2 fold change [9] | log2 fold change (entinostat) | log2 fold change (vorinostat) | log2 fold change (citarinostat) | log2 fold change (silmitasertib) | log2 fold change [10] | log2 fold change [11]
# NCSTN (UniProt Q92542) as listed: inactive: -0.041 | inactive: 0.014 | inactive: -0.007 | inactive: 0.03 | inactive: 0.006 | inactive: -0.044 | inactive: 0.041 | inactive: -0.032 | inactive: 0.085 | inactive: -0.002 | inactive: -0.076 | inactive: -0.051 | inactive: -0.001 | inactive: -0.004 | inactive: 0.004 | inactive: -0.034 | inactive: 0.037 | inactive: 0.041 | inactive: 0.054 | inactive: -0.146
# NEFH (UniProt P12036) as listed: inactive: -0.117 | inactive: -0.007 | inactive: 0.1 | inactive: -0.076 | inactive: 0.302 | inactive: -0.023 | inactive: -0.417 | inactive: -0.084 | inactive: 0.185 | inactive: -0.417 | inactive: -0.084 | inactive: -0.105 | inactive: -0.216 | inactive: 0.108 | inactive: -0.013 | inactive: -0.069 | inactive: -0.044 | inactive: 0.119 | inactive: 0.202 | inactive: -0.314
